Assay results taken from PubChem BioAssay AID248 (DTP/NCI, 2004).
The list does not hold the whole screen: it is rich in T/C values a quarter to a half above the control, in often repeated tests (any T/C) and in doses without a T/C. Other doses and runs of a compound stand elsewhere. T/C is the treated group as % of the vehicle group. Some entries give survivors of the animals treated and no T/C: the source files T/C as zero there, which appears to mark a toxic dose or a test without result, not a measured value. Some doses without a T/C left all or most animals alive at the check, yet need not have been tolerated: the source hardly ever lists a survival T/C far under the control, and the zero likely stands for such cases as well. Survivors were counted at the toxicity check, usually on the fifth day, unless a day is given; later deaths do not show. Schedules are NCI's codes, read here as Q, the interval in days (D) or hours (H), X, the number of doses. Some doses were run more than once; the results are listed from low to high. For survival time, this PubChem deposit counts one and a half times the control or more as active, and values a quarter to a half above the control carry no call in these data; other NCI protocols may use other cut-offs. Some T/C values carry the count of animals alive at the toxicity check (mostly the fifth day); where none is given, no animal had died by that day.

Test system: L1210 leukemia ip in BDF1 mice, survival T/C
Experiment: NCI In Vivo Anticancer Drug Screen. Data for tumor model L1210 Leukemia (intraperitoneal) in B6D2F1 (BDF1) mice
Conditions: T/C endpoint: mean survival time, higher T/C = longer survival
[1] = dose: 200.0 mg/kg/injection, schedule: Q01DX009 (ip), vehicle: saline with Tween-80
[2] = dose: 100.0 mg/kg/injection, schedule: Q04DX002 (ip), vehicle: saline with Tween-80
[3] = dose: 200.0 mg/kg/injection, schedule: Q04DX002 (ip), vehicle: saline with Tween-80
[4] = dose: 400.0 mg/kg/injection, schedule: Q04DX002 (ip), vehicle: saline with Tween-80
[5] = dose: 200.0 mg/kg/injection, schedule: Q04DX003 (ip), vehicle: Klucel (hydroxypropylcellulose) (HPC)
[6] = dose: 400.0 mg/kg/injection, schedule: Q04DX003 (ip), vehicle: Klucel (hydroxypropylcellulose) (HPC)
[7] = dose: 100.0 mg/kg/injection, schedule: Q01DX009 (ip), vehicle: Klucel (hydroxypropylcellulose) (HPC)
[8] = dose: 100.0 mg/kg/injection, schedule: Q01DX009 (ip), vehicle: other

Q: How did the survivor count [1] turn out when `Cc1ccc([N+](=O)[O-])cc1NC(=O)SCCOC(=O)COc1ccc(Cl)cc1` was run?
A: 6 of 6

Q: And the survivor count (dose: 400.0 mg/kg/injection, schedule: Q01DX009 (ip), vehicle: saline with Tween-80)?
A: 1 of 6

Q: How did the survivor count [2] turn out when `[Cl][Sb]([O][Sb]([Cl])([c]1ccccc1)([c]1ccccc1)[c]1ccccc1)([c]1ccccc1)([c]1ccccc1)[c]1ccccc1` was run?
A: 3 of 3

Q: What about the survivor count [3] of the same molecule?
A: 1 of 3

Q: And the survivor count [4]?
A: 0 of 3

Q: How did the survivor count (dose: 100.0 mg/kg/injection, schedule: Q04DX003 (ip), vehicle: Klucel (hydroxypropylcellulose) (HPC)) turn out when `CC(C)(C)N1CC1C(=O)Sc1ccccc1` (configuration not stated) was run?
A: 6 of 6

Q: What about the survivor count [5] of the same molecule?
A: 3 of 6

Q: What about the survivor count [6] of the same molecule?
A: 0 of 6

Q: Which survivor count (dose: 200.0 mg/kg/injection, schedule: Q04DX003 (ip), vehicle: saline) does the source give for `CCOC(=N)CCl` here?
A: 1 of 6

Q: `[Se]=P(N1CCCCC1)(N1CCCCC1)N1CCCCC1` was tested. Which survivor count [7] did it give?
A: 4 of 6

Q: And the survivor count (dose: 200.0 mg/kg/injection, schedule: Q01DX009 (ip), vehicle: Klucel (hydroxypropylcellulose) (HPC))?
A: 3 of 6

Q: And the survivor count (dose: 400.0 mg/kg/injection, schedule: Q01DX009 (ip), vehicle: Klucel (hydroxypropylcellulose) (HPC))?
A: 0 of 6

Q: How did the survivor count (dose: 400.0 mg/kg/injection, schedule: Q04DX003 (ip), vehicle: saline) turn out when `CN(C)CC1C2C=CC(C2)C1CN(C)C` (configuration not stated) was run?
A: 0 of 6

Q: Which results are given for `Cn1c(=O)cc(CC#N)c2ccccc21`?
A: survivor count (dose: 200.0 mg/kg/injection, schedule: Q01DX001 (ip), vehicle: other): 0 of 6; survivor count (dose: 400.0 mg/kg/injection, schedule: Q01DX001 (ip), vehicle: other): 0 of 6

Q: `O=C(O)C1C(C(=O)O)C2(Cl)C(Cl)=C(Cl)C1(Cl)C2(Cl)Cl.[Co]` (configuration not stated) was tested. Which T/C (dose: 100.0 mg/kg/injection, schedule: Q01DX009 (ip), vehicle: saline sonified) did it give?
A: 133 % of control

Q: What about the survivor count (dose: 200.0 mg/kg/injection, schedule: Q01DX009 (ip), vehicle: saline sonified) of the same molecule?
A: 5 of 6

Q: `Cc1cn(C2OC(CO)C(O)C2O)c2ncnc(N)c12` (configuration not stated) was tested. Which survivor count (dose: 25.0 mg/kg/injection, schedule: Q01DX005 (ip), vehicle: water) did it give?
A: 0 of 3

Q: And the survivor count (dose: 50.0 mg/kg/injection, schedule: Q01DX005 (ip), vehicle: water)?
A: 0 of 3

Q: And the survivor count (dose: 100.0 mg/kg/injection, schedule: Q01DX005 (ip), vehicle: water)?
A: 0 of 3

Q: What about the survivor count (dose: 200.0 mg/kg/injection, schedule: Q01DX005 (ip), vehicle: water) of the same molecule?
A: 0 of 3

Q: And the survivor count (dose: 400.0 mg/kg/injection, schedule: Q01DX005 (ip), vehicle: water)?
A: 0 of 3

Q: How did the survivor count (dose: 200.0 mg/kg/injection, schedule: Q01DX001 (sc), vehicle: steroid suspending solution) turn out when `CCN(CC)CCO[C@H]1CC[C@@]2(C)C(=CC[C@@H]3[C@@H]2CC[C@]2(C)C(=O)CC[C@@H]32)C1` was run?
A: 3 of 6

Q: And the survivor count (dose: 400.0 mg/kg/injection, schedule: Q01DX001 (sc), vehicle: steroid suspending solution)?
A: 1 of 6

Q: For `CCC(C(C)C)C(Br)C(Br)C(C)C1CCC2C3CC=C4CC(OC(C)=O)CCC4(C)C3CCC12C` (configuration not stated), which survivor count [7] is on record?
A: 6 of 6

Q: For `O=C(NCc1cnccn1)Oc1ccc([N+](=O)[O-])cc1`, which survivor count [1] is on record?
A: 3 of 6

Q: With `CCCCCCCCCCCCCCCCNC(=O)C[N+](C)(C)Cc1ccccc1` as the molecule, how does the survivor count (dose: 10.0 mg/kg/injection, schedule: Q01DX009 (ip), vehicle: saline with Tween-80) read?
A: 4 of 6

Q: Which survivor count (dose: 100.0 mg/kg/injection, schedule: Q01DX001 (ip), vehicle: carboxymethylcellulose (CMC)) does the source give for `c1ccc2c(CNC3CCCCC3)c[nH]c2c1` here?
A: 1 of 4

Q: What about the survivor count (dose: 120.0 mg/kg/injection, schedule: Q01DX015 (ip), vehicle: carboxymethylcellulose (CMC)) of the same molecule?
A: 0 of 6

Q: What about the survivor count (dose: 180.0 mg/kg/injection, schedule: Q01DX015 (ip), vehicle: carboxymethylcellulose (CMC)) of the same molecule?
A: 0 of 6

Q: And the survivor count (dose: 200.0 mg/kg/injection, schedule: Q01DX001 (ip), vehicle: carboxymethylcellulose (CMC))?
A: 0 of 4

Q: And the survivor count (dose: 240.0 mg/kg/injection, schedule: Q01DX015 (ip), vehicle: carboxymethylcellulose (CMC))?
A: 0 of 6

Q: What about the survivor count (dose: 400.0 mg/kg/injection, schedule: Q01DX001 (ip), vehicle: carboxymethylcellulose (CMC)) of the same molecule?
A: 0 of 4

Q: Which results are given for `COC(=O)C1C2CC3c4[nH]c5cc(OC)ccc5c4CCN3CC2CC(OC2CCCCO2)C1OC` (configuration not stated)?
A: survivor count [5]: 2 of 4; survivor count [6]: 4 of 4

Q: Which results are given for `CCCCCCCCSS(C)(=O)=O`?
A: survivor count (dose: 75.0 mg/kg/injection, schedule: Q01DX001 (sc), vehicle: carboxymethylcellulose (CMC)): 0 of 6; survivor count (dose: 150.0 mg/kg/injection, schedule: Q01DX001 (sc), vehicle: carboxymethylcellulose (CMC)): 1 of 6; survivor count (dose: 300.0 mg/kg/injection, schedule: Q01DX001 (sc), vehicle: carboxymethylcellulose (CMC)): 0 of 6

Q: With `CS(=O)NOCCCCONS(C)=O` (configuration not stated) as the molecule, how does the survivor count [4] read?
A: 1 of 3

Q: What does the source list for `Cc1ccc(C(SCC(N)C(=O)O)(c2ccccc2)c2ccc(C)cc2)cc1` (configuration not stated)?
A: T/C (dose: 2.4 mg/kg/injection, schedule: Q01DX009 (ip), vehicle: saline): 132 % of control; T/C (dose: 3.6 mg/kg/injection, schedule: Q01DX009 (ip), vehicle: saline): 149 % of control; T/C (dose: 6.5 mg/kg/injection, schedule: Q01DX009 (ip), vehicle: saline): 146 % of control; survivor count (dose: 50.0 mg/kg/injection, schedule: Q01DX009 (ip), vehicle: other): 5 of 6; survivor count [8]: 4 of 6; survivor count (dose: 100.0 mg/kg/injection, schedule: Q01DX009 (ip), vehicle: saline): 5 of 6 and 9 of 10

Q: For `C=C1CC(c2ccc(S(=O)(=O)N3CCCC3)cc2)OC1=O` (configuration not stated), which survivor count (dose: 400.0 mg/kg/injection, schedule: Q04DX002 (ip), vehicle: Klucel (hydroxypropylcellulose) (HPC)) is on record?
A: 1 of 3

Q: `Cc1c2ccncc2c(C)c2c1[nH]c1ccc(O)cc12` was tested. Which survivor count (dose: 1.56 mg/kg/injection, schedule: Q01DX009 (ip), vehicle: saline with Tween-80) did it give?
A: 5 of 6

Q: What about the T/C (dose: 3.12 mg/kg/injection, schedule: Q01DX009 (ip), vehicle: saline with Tween-80) of the same molecule?
A: 127 % of control

Q: What about the T/C (dose: 6.3 mg/kg/injection, schedule: Q01DX009 (ip), vehicle: saline with Tween-80) of the same molecule?
A: 137 % of control

Q: And the T/C (dose: 12.5 mg/kg/injection, schedule: Q01DX009 (ip), vehicle: saline with Tween-80)?
A: 130 % of control

Q: And the T/C (dose: 12.5 mg/kg/injection, schedule: Q04DX003 (ip), vehicle: saline with Tween-80)?
A: 127 % of control [5 of 6 alive]

Q: And the survivor count (dose: 25.0 mg/kg/injection, schedule: Q01DX009 (ip), vehicle: saline with Tween-80)?
A: 4 of 6 and 5 of 6

Q: What about the T/C (dose: 25.0 mg/kg/injection, schedule: Q04DX003 (ip), vehicle: saline with Tween-80) of the same molecule?
A: 135 % of control

Q: What about the survivor count (dose: 50.0 mg/kg/injection, schedule: Q01DX009 (ip), vehicle: saline with Tween-80) of the same molecule?
A: 3 of 6

Q: And the T/C (dose: 50.0 mg/kg/injection, schedule: Q04DX003 (ip), vehicle: saline with Tween-80)?
A: 125 % of control

Q: And the survivor count (dose: 100.0 mg/kg/injection, schedule: Q04DX003 (ip), vehicle: saline with Tween-80)?
A: 2 of 6 and 5 of 6

Q: And the survivor count (dose: 200.0 mg/kg/injection, schedule: Q04DX003 (ip), vehicle: saline with Tween-80)?
A: 1 of 6

Q: And the survivor count (dose: 400.0 mg/kg/injection, schedule: Q04DX003 (ip), vehicle: saline with Tween-80)?
A: 0 of 6

Q: Which survivor count (dose: 75.0 mg/kg/injection, schedule: Q04DX003 (ip), vehicle: other) does the source give for `c1nc2c([nH]1)CCCCC2` here?
A: 0 of 6

Q: What about the survivor count [8] of the same molecule?
A: 0 of 3 and 0 of 6

Q: And the survivor count [2]?
A: 0 of 3 and 0 of 6

Q: What about the survivor count (dose: 150.0 mg/kg/injection, schedule: Q04DX003 (ip), vehicle: other) of the same molecule?
A: 0 of 6

Q: What about the survivor count [3] of the same molecule?
A: 0 of 3 and 0 of 6

Q: What about the survivor count (dose: 300.0 mg/kg/injection, schedule: Q04DX003 (ip), vehicle: other) of the same molecule?
A: 0 of 6

Q: And the survivor count [4]?
A: 0 of 3 and 0 of 6

Q: With `OC(C(F)(F)F)C(F)(F)Cl` (configuration not stated) as the molecule, how does the survivor count (dose: 200.0 mg/kg/injection, schedule: Q01DX001 (ip), vehicle: saline) read?
A: 1 of 4

Q: What about the survivor count (dose: 400.0 mg/kg/injection, schedule: Q01DX001 (ip), vehicle: saline) of the same molecule?
A: 1 of 4
